Data as given in PubChem BioAssay AID1671195 (Yale University, 2021)

Test: 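Genes whose knockdown alters LDL uptake in liver cancer cells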 (primary screen)
Cells: human Huh7 hepatoma cells
Reagent: siRNA pool against human genes, 18 nM
Timing: about 2 to 2.5 days of knockdown, then 8 h LDL uptake
Challenge: DiI-labelled LDL at 30 µg/ml for 8 h, in lipoprotein-deficient serum medium
Detection: 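Per-cell DiI-LDL intensity by automated imaging; well means scaled to the plate median and given as a robust z-score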
Reading the numbers: robust z-score: higher = more LDL uptake after knockdown
Rule for the call: 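a gene counts as active if at least two replicate z-scores exceed ±2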
The whole screen tested about 22,000 reagents; this is an unselected part. About 1,510 of them (6.9%) count as active. 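Active includes knockdowns raising or lowering LDL uptake; positive z-scores mean more uptake, negative mean less.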

For KRTAP5-7 [SID442896642], what was measured?
robust z-score, replicate 1: 0.587; robust z-score, replicate 2: -1.02; robust z-score, replicate 3: -0.457; Call: inactive

For TMEM59L [SID442887852], what does the deposit list?
robust z-score, replicate 1: 1.27; robust z-score, replicate 2: -0.207; robust z-score, replicate 3: 1.42; Call: inactive

With KRT222 [SID442890757], how do the results read?
robust z-score, replicate 1: 0.6; robust z-score, replicate 2: 0.209; robust z-score, replicate 3: 0.308; Call: inactive

For CST3 [SID442893832], what does the deposit list?
robust z-score, replicate 1: -0.0184; robust z-score, replicate 2: -0.27; robust z-score, replicate 3: 0.306; Call: inactive

With P2RX6 [SID442891278], how do the results read?
robust z-score, replicate 1: 0.456; robust z-score, replicate 2: 0.162; robust z-score, replicate 3: 0.302; Call: inactive

With TYMP [SID442896794], how do the results read?
robust z-score, replicate 1: -1.19; robust z-score, replicate 2: 1.14; robust z-score, replicate 3: -0.893; Call: inactive

What did the screen give for CNTNAP5 [SID442900528]?
robust z-score, replicate 1: -0.694; robust z-score, replicate 2: -0.586; robust z-score, replicate 3: -1.04; Call: inactive

What did the screen give for P3H3 [SID442887440]?
robust z-score, replicate 1: 0.634; robust z-score, replicate 2: 0.865; robust z-score, replicate 3: 1.24; Call: inactive

What did the screen give for ARHGAP15 [SID442890371]?
robust z-score, replicate 1: -0.591; robust z-score, replicate 2: -0.817; robust z-score, replicate 3: 2.68; Call: inactive

For CWF19L2 [SID442889540], what was measured?
robust z-score, replicate 1: 0.435; robust z-score, replicate 2: 0.706; robust z-score, replicate 3: 0.49; Call: inactive

What did the screen give for CCDC120 [SID442896997]?
robust z-score, replicate 1: -0.301; robust z-score, replicate 2: -0.503; robust z-score, replicate 3: -0.203; Call: inactive

How did the screen score DRC10 [SID442895549]?
robust z-score, replicate 1: -0.308; robust z-score, replicate 2: 0.106; robust z-score, replicate 3: -0.337; Call: inactive

What is on record for LYG1 [SID442898716]?
robust z-score, replicate 1: 0.0491; robust z-score, replicate 2: -0.601; robust z-score, replicate 3: -1.04; Call: inactive

What did the screen give for MDC1 [SID442890025]?
robust z-score, replicate 1: 1.59; robust z-score, replicate 2: 0.21; robust z-score, replicate 3: -0.375; Call: inactive

For IL5 [SID442896373], how do the results read?
robust z-score, replicate 1: -0.699; robust z-score, replicate 2: -0.0211; robust z-score, replicate 3: -0.0763; Call: inactive

With PYCR2 [SID442894450], what was measured?
robust z-score, replicate 1: -0.124; robust z-score, replicate 2: -0.528; robust z-score, replicate 3: 0.457; Call: inactive
